Laboratory results reported in patent US20170002081A1.
No constants are given. Whether binding was seen depends on the method and setting. Some entries that bind do so weakly or less than the wild type.

Assays:
[1] = target: construct pTG18038 (isolated domain 1 of human CSF-1R, Histidine tag) (human) (UniProt P07333); assay: ELISA, His-tagged construct captured by anti-His antibody, biotinylated antibody
[2] = target: pTG18039; assay: ELISA: His-tagged construct captured from CHO supernatant on anti-His tag coated wells; biotinylated antibody; streptavidin-HRP
[3] = target: pTG18040; assay: as above

binding [1]: binds
binding [2]: binds
binding [3]: binds
Substance: Chimeric CXIIG6 IgG1 (from UniProt P01857 1-330; P01834 1-107) (antibody)
